{"source": "paper PMC3115956", "key": {"Flag-DKKL1 (mouse)": {"biological_target": "T1, Flag-DKKL1 (mouse) (UniProt Q9QZL9)", "T1 sequence": "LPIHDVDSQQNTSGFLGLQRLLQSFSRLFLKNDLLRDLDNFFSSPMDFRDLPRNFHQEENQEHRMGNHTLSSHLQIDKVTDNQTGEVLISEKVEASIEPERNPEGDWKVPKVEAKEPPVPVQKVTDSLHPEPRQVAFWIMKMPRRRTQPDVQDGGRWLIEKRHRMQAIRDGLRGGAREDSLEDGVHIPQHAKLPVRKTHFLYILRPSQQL", "assay": "co-IP; SLXL1-GFP and Flag-DKKL1 co-transfected into HEK293T; RIPA lysate 48 h after transfection incubated with Flag-conjugated sepharose beads overnight at 4°C, washed 5 times; blots with anti-GFP and anti-FLAG; control: empty pFlag-CMV-4 with Slxl1-GFP"}, "[1]": {"biological_target": "T2, SLXL1 (native, testis) (mouse (endogenous in testis)) (UniProt K9J714)", "T2 sequence": "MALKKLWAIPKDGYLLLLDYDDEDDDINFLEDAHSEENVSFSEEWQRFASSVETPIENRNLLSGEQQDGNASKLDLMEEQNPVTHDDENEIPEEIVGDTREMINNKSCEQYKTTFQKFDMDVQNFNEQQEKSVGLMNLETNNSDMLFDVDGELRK", "assay": "co-IP; total mouse testis lysate incubated with anti-SLXL1 1-155aa antiserum or rabbit preimmune serum for 2 h at 4°C, then protein A agarose beads overnight at 4°C, washed 5 times in PBS; blots with anti-SLXL1 65-155aa and anti-DKKL1"}}, "note": "Results are given in words; binding and its absence hold for the method and conditions named. Binding seen in cells or lysates may run through a third protein. Some binding calls cover weakened binding; strength is not graded here. For some assays here: Where a sequence is shown, tags or fusion partners need not be part of it.", "data": [{"binder": "SLXL1-GFP (protein, UniProt K9J714 1-155) MALKKLWAIPKDGYLLLLDYDDEDDDINFLEDAHSEENVSFSEEWQRFASSVETPIENRNLLSGEQQDGNASKLDLMEEQNPVTHDDENEIPEEIVGDTREMINNKSCEQYKTTFQKFDMDVQNFNEQQEKSVGLMNLETNNSDMLFDVDGELRK", "values": [{"measurement": "binding", "setting": "Flag-DKKL1 (mouse)", "value": "binds"}]}, {"binder": "DKKL1 (native, testis) (protein, UniProt Q9QZL9 21-230) LPIHDVDSQQNTSGFLGLQRLLQSFSRLFLKNDLLRDLDNFFSSPMDFRDLPRNFHQEENQEHRMGNHTLSSHLQIDKVTDNQTGEVLISEKVEASIEPERNPEGDWKVPKVEAKEPPVPVQKVTDSLHPEPRQVAFWIMKMPRRRTQPDVQDGGRWLIEKRHRMQAIRDGLRGGAREDSLEDGVHIPQHAKLPVRKTHFLYILRPSQQL", "values": [{"measurement": "binding", "setting": "[1]", "value": "binds"}]}]}
